{
  "sequences": {"note": "Sequences of proteins named here, by UniProt entry; tags and fusion partners are left off. A change or cut given only in a name is not applied to a line headed by its entry.", "UniProt Q96KQ7": "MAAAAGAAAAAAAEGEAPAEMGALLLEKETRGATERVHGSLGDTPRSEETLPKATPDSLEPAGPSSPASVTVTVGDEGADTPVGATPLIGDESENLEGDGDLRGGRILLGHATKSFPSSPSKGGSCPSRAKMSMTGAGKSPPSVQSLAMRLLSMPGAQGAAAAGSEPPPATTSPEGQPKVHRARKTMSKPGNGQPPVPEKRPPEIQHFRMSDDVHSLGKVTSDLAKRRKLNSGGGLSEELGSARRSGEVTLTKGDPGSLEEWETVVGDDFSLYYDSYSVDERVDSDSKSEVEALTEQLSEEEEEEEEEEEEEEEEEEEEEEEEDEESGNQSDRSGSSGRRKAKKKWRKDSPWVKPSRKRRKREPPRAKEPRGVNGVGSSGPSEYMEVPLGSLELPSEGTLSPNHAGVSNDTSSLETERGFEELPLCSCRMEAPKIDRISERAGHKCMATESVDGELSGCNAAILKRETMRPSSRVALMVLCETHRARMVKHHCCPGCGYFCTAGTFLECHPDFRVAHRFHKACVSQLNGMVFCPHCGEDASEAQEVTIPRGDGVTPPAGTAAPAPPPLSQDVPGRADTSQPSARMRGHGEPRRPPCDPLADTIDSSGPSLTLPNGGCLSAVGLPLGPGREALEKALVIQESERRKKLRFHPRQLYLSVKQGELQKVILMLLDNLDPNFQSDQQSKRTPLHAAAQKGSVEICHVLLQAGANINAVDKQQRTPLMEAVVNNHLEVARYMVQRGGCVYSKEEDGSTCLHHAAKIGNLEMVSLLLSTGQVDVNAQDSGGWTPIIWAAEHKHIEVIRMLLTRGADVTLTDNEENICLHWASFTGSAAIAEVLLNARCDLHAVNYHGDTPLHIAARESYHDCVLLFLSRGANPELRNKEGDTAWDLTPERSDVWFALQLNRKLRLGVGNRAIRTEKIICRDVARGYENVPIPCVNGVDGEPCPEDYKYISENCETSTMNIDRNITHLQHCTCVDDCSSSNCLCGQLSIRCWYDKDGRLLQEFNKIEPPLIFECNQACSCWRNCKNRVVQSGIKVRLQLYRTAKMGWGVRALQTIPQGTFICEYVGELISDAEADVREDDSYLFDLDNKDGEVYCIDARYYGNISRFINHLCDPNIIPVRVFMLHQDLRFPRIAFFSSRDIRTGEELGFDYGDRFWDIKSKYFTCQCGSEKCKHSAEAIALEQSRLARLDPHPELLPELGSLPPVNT"},
  "source": "paper doi:10.1101/2025.05.14.653660",
  "molecules": {"B1": {"name": "UHRF1 (protein, UniProt Q96T88 1-793)", "chain": "MWIQVRTMDGRQTHTVDSLSRLTKVEELRRKIQELFHVEPGLQRLFYRGKQMEDGHTLFDYEVRLNDTIQLLVRQSLVLPHSTKERDSELSDTDSGCCLGQSESDKSSTHGEAAAETDSRPADEDMWDETELGLYKVNEYVDARDTNMGAWFEAQVVRVTRKAPSRDEPCSSTSRPALEEDVIYHVKYDDYPENGVVQMNSRDVRARARTIIKWQDLEVGQVVMLNYNPDNPKERGFWYDAEISRKRETRTARELYANVVLGDDSLNDCRIIFVDEVFKIERPGEGSPMVDNPMRRKSGPSCKHCKDDVNRLCRVCACHLCGGRQDPDKQLMCDECDMAFHIYCLDPPLSSVPSEDEWYCPECRNDASEVVLAGERLRESKKKAKMASATSSSQRDWGKGMACVGRTKECTIVPSNHYGPIPGIPVGTMWRFRVQVSESGVHRPHVAGIHGRSNDGAYSLVLAGGYEDDVDHGNFFTYTGSGGRDLSGNKRTAEQSCDQKLTNTNRALALNCFAPINDQEGAEAKDWRSGKPVRVVRNVKGGKNSKYAPAEGNRYDGIYKVVKYWPEKGKSGFLVWRYLLRRDDDEPGPWTKEGKDRIKKLGLTMQYPEGYLEALANREREKENSKREEEEQQEGGFASPRTGKGKWKRKSAGGGPSRAGSPRRTSKKTKVEPYSLTAQQSSLIREDKSNAKLWNEVLASLKDRPASGSPFQLFLSKVEETFQCICCQELVFRPITTVCQHNVCKDCLDRSFRAQVFSCPACRYDLGRSYAMQVNQPLQTVLNQLFPGYGNGR"}, "B2": {"name": "LASP1 (protein, UniProt Q14847 1-261)", "chain": "MNPNCARCGKIVYPTEKVNCLDKFWHKACFHCETCKMTLNMKNYKGYEKKPYCNAHYPKQSFTMVADTPENLRLKQQSELQSQVRYKEEFEKNKGKGFSVVADTPELQRIKKTQDQISNIKYHEEFEKSRMGPSGGEGMEPERRDSQDGSSYRRPLEQQQPHHIPTSAPVYQQPQQQPVAQSYGGYKEPAAPVSIQRSAPGGGGKRYRAVYDYSAADEDEVSFQDGDTIVNVQQIDDGWMYGTVERTGDTGMLPANYVEAI"}},
  "note": "These are yes or no findings as the source states them, for the method shown. Binding seen in cells or lysates may run through a third protein. A yes stands for co-enrichment or nearness to the bait. Other partners may have been found. Where a sequence is shown, tags or fusion partners need not be part of it.",
  "data": [
    {"biological_target": "T1, FLAG-tagged RUNX1T1 (UniProt Q06455)", "T1 sequence": "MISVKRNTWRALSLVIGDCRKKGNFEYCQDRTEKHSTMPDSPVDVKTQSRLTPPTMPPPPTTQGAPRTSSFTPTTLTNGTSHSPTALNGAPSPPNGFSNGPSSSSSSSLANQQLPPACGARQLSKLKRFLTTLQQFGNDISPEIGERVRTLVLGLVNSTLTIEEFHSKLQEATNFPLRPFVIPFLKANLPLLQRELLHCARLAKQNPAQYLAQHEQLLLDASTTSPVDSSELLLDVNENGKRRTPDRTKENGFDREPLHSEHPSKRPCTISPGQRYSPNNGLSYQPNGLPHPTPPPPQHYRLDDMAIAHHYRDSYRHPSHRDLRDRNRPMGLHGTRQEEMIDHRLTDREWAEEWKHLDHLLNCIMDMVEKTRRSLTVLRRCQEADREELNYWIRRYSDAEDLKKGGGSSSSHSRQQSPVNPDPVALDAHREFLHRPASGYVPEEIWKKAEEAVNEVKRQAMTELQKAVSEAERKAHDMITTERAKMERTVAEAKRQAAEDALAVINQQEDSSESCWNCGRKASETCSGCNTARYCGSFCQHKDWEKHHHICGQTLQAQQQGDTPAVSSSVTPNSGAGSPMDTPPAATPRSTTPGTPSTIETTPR", "assay": "affinity purification with mass spectrometry", "values": [
      {"molecule": "EHMT2/G9A (from UniProt Q96KQ7 1-1210)", "binding": "binds"},
      {"molecule": "B1", "binding": "binds"},
      {"molecule": "B2", "binding": "binds"}
    ]}
  ]
}
